In paper PMC4227133 one finds binding data, which are given here for one substance.

Chains of the proteins cited; added tags and fusions are not shown.
UniProt O60563: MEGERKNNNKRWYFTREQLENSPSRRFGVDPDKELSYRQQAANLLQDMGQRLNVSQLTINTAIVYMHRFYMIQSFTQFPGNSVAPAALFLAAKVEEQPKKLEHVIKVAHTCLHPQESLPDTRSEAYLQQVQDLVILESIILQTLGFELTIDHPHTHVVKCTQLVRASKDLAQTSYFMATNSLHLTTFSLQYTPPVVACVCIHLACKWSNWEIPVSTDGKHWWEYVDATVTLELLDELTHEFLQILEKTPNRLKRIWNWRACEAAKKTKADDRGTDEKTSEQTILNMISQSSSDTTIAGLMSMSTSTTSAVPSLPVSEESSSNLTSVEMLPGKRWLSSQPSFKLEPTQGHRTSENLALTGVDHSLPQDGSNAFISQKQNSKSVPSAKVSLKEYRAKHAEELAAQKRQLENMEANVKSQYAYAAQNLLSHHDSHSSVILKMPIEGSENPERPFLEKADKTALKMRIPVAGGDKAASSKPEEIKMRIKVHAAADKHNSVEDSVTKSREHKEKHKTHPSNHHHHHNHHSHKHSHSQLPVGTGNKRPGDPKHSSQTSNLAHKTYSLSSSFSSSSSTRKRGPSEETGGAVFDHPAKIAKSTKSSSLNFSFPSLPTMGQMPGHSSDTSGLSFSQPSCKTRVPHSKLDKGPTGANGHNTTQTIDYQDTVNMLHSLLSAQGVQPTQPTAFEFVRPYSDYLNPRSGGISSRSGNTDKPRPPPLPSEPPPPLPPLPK
UniProt O94992: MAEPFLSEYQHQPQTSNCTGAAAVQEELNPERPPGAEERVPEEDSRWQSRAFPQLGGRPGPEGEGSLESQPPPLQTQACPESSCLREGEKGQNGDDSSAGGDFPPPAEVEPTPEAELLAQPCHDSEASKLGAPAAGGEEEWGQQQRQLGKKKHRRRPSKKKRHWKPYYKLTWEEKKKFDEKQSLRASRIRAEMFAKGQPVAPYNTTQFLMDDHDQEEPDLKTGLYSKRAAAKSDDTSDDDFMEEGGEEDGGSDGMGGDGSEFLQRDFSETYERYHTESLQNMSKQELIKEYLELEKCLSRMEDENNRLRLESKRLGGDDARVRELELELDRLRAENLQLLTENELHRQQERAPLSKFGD

The experiment concerns the target Gal4-CycT1 wild type expressed in HEK293 cells (pCMVGal4-CycT1m) (human) (UniProt O60563). The experiment in a line: co-IP; Gal4-CycT1 proteins transiently expressed in HEK293 cells, immunoprecipitated with anti-Gal4 antibodies; Western blot with Cdk9, Cyclin T1 and Hexim1 antibodies; lysis buffer with 200 mM NaCl, 0.5% Igepal. (In general: A western blot detects proteins with antibodies after separation by electrophoresis.)

These are yes or no findings as the source states them, for the method shown. In cells and extracts the contact can be indirect. Some entries that bind do so weakly or less than the wild type.

With “Hexim1, endogenous in HEK293 cells (from UniProt O94992 1-359)”, the binding result is recorded as “binds”.
